Structures were worked out from names or drawings and are uncertain.
Legend:
α1β3γ2 GABAA/BzR = α1β3γ2 GABAA/BzR (Homo sapiens, UniProt P14867+P18507); experiment: Competition binding to HEK cell membranes, α1β3γ2; details: read-out: Ki α1
α2β3γ2 GABAA/BzR = α2β3γ2 GABAA/BzR (Homo sapiens, UniProt P18507+P47869); experiment: Competition binding to HEK cell membranes, α2β3γ2; details: read-out: Ki α2
α3β3γ2 GABAA/BzR = α3β3γ2 GABAA/BzR (Homo sapiens, UniProt P18507+P34903); experiment: Competition binding to HEK cell membranes, α3β3γ2; details: read-out: Ki α3
α5β3γ2 GABAA/BzR = α5β3γ2 GABAA/BzR (Homo sapiens, UniProt P18507+P31644); experiment: Competition binding to HEK cell membranes, α5β3γ2; details: read-out: Ki α5

C[Si](C)(C)C#Cc1ccc2c(c1)C(c1ccccc1Cl)=NCC(=O)N2 [XLI-348]
Ki (α1β3γ2 GABAA/BzR): 0.0136 µM | Ki (α2β3γ2 GABAA/BzR): 0.0112 µM | Ki (α3β3γ2 GABAA/BzR): 0.00158 µM | Ki (α5β3γ2 GABAA/BzR): 0.082 µM

C[Si](C)(C)C#Cc1ccc2c(c1)C(c1ccccc1Cl)=NCC(=O)N2 [XLi343]
Ki (α1β3γ2 GABAA/BzR): 0.00638 µM | Ki (α2β3γ2 GABAA/BzR): 0.0177 µM | Ki (α5β3γ2 GABAA/BzR): 0.15 µM
